# Melanoma cell counts after drug treatment

Data from the primary screen of doi:10.1371/journal.pone.0140310, rounded.

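The test systems are human melanoma cell lines, treated with two drugs together for 72 h and then stained and imaged. Each value is the count of nuclei relative to DMSO-treated wells, in %, so that 100 equals the control. Every drug was used at one fixed concentration, the lower of two screened (a fifth of the higher). No replicate spread is given; individual values may be noisy.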
An unselected part of the screen is shown.
An entry leaves out what has no value listed here.
A dash means that no value is listed here.

Drug key:
CP-690550, 1 µM: C[C@@H]1CCN(C(=O)CC#N)C[C@@H]1N(C)c1ncnc2[nH]ccc12
fingolimod, 2 µM: CCCCCCCCc1ccc(CCC(N)(CO)CO)cc1
OSU-03012, 1 µM: NCC(=O)Nc1ccc(-n2nc(C(F)(F)F)cc2-c2ccc3c(ccc4ccccc43)c2)cc1
Src-I1, 2 µM: COc1cc2ncnc(Nc3ccc(Oc4ccccc4)cc3)c2cc1OC
PF-04217903, 1 µM: OCCn1cc(-c2cnc3nnn(Cc4ccc5ncccc5c4)c3n2)cn1
enzastaurin, 0.8 µM: Cn1cc(C2=C(c3cn(C4CCN(Cc5ccccn5)CC4)c4ccccc34)C(=O)NC2=O)c2ccccc21
L-779450, 0.2 µM: Oc1cc(-c2nc(-c3ccccc3)[nH]c2-c2ccncc2)ccc1Cl
indole-3-carbinol, 0.8 µM: OCc1c[nH]c2ccccc12
PF-562271, 0.08 µM: CN(c1ncccc1CNc1nc(Nc2ccc3c(c2)CC(=O)N3)ncc1C(F)(F)F)S(C)(=O)=O
docetaxel, 0.0001 µM: CC(=O)O[C@@]12CO[C@@H]1C[C@H](O)[C@@]1(C)C(=O)[C@H](O)C3=C(C)[C@@H](OC(=O)[C@H](O)[C@@H](NC(=O)OC(C)(C)C)c4ccccc4)C[C@@](O)([C@@H](OC(=O)c4ccccc4)[C@H]21)C3(C)C
pioglitazone, 2 µM: CCc1ccc(CCOc2ccc(CC3SC(=O)NC3=O)cc2)nc1 (centres undefined)

Combination | IST-MEL1 | G-361 | COLO 792 | COLO 829 | COLO 800
OSU-03012 + Src-I1 | 84.3 | 92.5 | 78.1 | 96.3 | 75.4
PF-562271 + docetaxel | 57.9 | 18.6 | 30.1 | 36.6 | 32.7
pioglitazone + L-779450 | 100 | 94.6 | 104 | 108 | 109
docetaxel + CP-690550 | 70.1 | 22.2 | 29.6 | 57.9 | 30.1
docetaxel + OSU-03012 | 69.6 | 28.6 | 28.9 | 48.0 | 51.6
fingolimod + PF-04217903 | - | - | 88.4 | - | -
docetaxel + pioglitazone | - | - | 37.3 | - | -
enzastaurin + PF-04217903 | 96.8 | 101 | 98.7 | 123 | 108
pioglitazone + OSU-03012 | 95.4 | 107 | 84.6 | 82.6 | 63.0
enzastaurin + indole-3-carbinol | 110 | 94.6 | 104 | 73.0 | 76.0

The first 2 entries again:

{"combination": "OSU-03012 + Src-I1", "IST-MEL1": 84.3, "G-361": 92.5, "COLO 792": 78.1, "COLO 829": 96.3, "COLO 800": 75.4}
{"combination": "PF-562271 + docetaxel", "IST-MEL1": 57.9, "G-361": 18.6, "COLO 792": 30.1, "COLO 829": 36.6, "COLO 800": 32.7}